{"source": "PubChem BioAssay AID624297", "about": "(National Center for Advancing Translational Sciences (NCATS), 2012)", "note": "The whole screen tested about 340,000 compounds, of which about 6,200 (1.8%) were called active. Inconclusive means that the source gave no clear call. Such entries were picked first, then a sample of the others. The call rests on the fitted dose curve; in most records, active means well fitted activation curve with a large enough effect; inconclusive means small, poorly fitted or top-dose-only effect; inactive means no such curve, though single readings can be large or run the other way. Potencies beside an inconclusive call are fits to weak or partial responses and may not hold up. Potency means the concentration at half of the fitted maximal effect.", "data": [{"assay": "A quantitative high throughput screen for small molecules that induce DNA re-replication in SW480 colon adenocarcinoma cells; further: nearly all actives have a fitted effect of over 55% in size.", "settings": "Hoechst DNA content imaging, 48 h; series mostly up to 46.1 µM", "in_short": "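Compounds, transferred as 23 nL by pin tool, were incubated with cells for 48 hr; DNA content per nucleus was then quantified by Hoechst staining and fluorescence plate imaging.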", "values": [{"smiles": "O=C(CCc1nnc(C2CCCCC2)o1)NCCCOc1cccnc1", "Potency": "inconclusive: 2.91 µM [activator, full curve, poor fit]"}, {"smiles": "O=C(CNC(=O)c1ccccc1F)c1ccccc1", "Potency": "inconclusive: 18.4 µM [activator, single point]"}, {"smiles": "O=C(O)CSC(C(=O)Nc1ccc(Br)cc1)c1ccc(Cl)cc1", "note": "(centres undefined)", "Potency": "inconclusive: 29.1 µM [activator, single point]"}, {"smiles": "O=C(O)CCCn1ccc2cc(S(=O)(=O)N3CCCC3)ccc21", "Potency": "inconclusive: 2.59 µM [activator, full curve]"}, {"smiles": "CSc1ccc(/C=C/C(=O)c2ccc(NC(=O)C(C)C)cc2)cc1", "Potency": "inconclusive: 20.6 µM [activator, single point]"}, {"smiles": "COc1ccc(/C=C/C(=O)OC(C)CN2CCCCC2)cc1", "note": "(centres undefined)", "Potency": "inconclusive: 18.4 µM [activator, single point]"}, {"smiles": "CC(C)(C)c1ccc(C(=O)NCC(=O)N2CCCCCC2)cc1", "Potency": "inconclusive: 29.1 µM [activator, single point]"}, {"smiles": "CCCn1c(NC(=O)c2ccc(C)cc2)nc2ccccc21", "Potency": "inconclusive: 18.4 µM [activator, single point]"}, {"smiles": "Cc1nc(C(=O)Nc2ccc(Cl)cc2Cl)nn1-c1cc(OC(C)C)c(Cl)cc1Cl", "Potency": "inactive"}, {"smiles": "CC(C)COCc1ccc(O)c2ncccc12", "Potency": "inconclusive: 5.17 µM [activator, single point]"}, {"smiles": "O=C(NNC(=O)C1CC(=O)N(Cc2ccccc2)C1)c1ccc(F)cc1", "note": "(centres undefined)", "Potency": "inactive"}, {"smiles": "CCCC(OC(=O)CN1C(=O)COc2ccccc21)C(=O)NC1CCCC1", "note": "(centres undefined)", "Potency": "inactive"}, {"smiles": "O=C(c1cc2ccccc2s1)N1CCN(c2ccccn2)CC1", "Potency": "inconclusive: 29.1 µM [activator, single point]"}, {"smiles": "CN(Cc1ccccc1)C(=O)c1ccc(NC(=O)Cc2ccc(NC(=O)C3CCN(C(=O)CCc4ccccc4)CC3)cc2)cc1", "Potency": "inconclusive: 0.731 µM [activator, full curve, poor fit]"}, {"smiles": "O=C(Nc1ccc(S(=O)(=O)N2CCOCC2)cc1)c1cccnc1", "Potency": "inconclusive: 29.1 µM [activator, single point]"}, {"smiles": "Cc1nn(Cc2ccc(Cl)c(Cl)c2)c(C)c1NC(=O)c1cn(-c2ccccc2)nc1-c1ccccc1", "Potency": "inactive"}, {"smiles": "COc1ccc(C2=Nn3c(nnc3-c3ccccn3)SC2)cc1", "Potency": "inconclusive: 18.4 µM [activator, single point]"}, {"smiles": "Nc1ccc(C(=O)N/N=C\\C=C\\c2cccc([N+](=O)[O-])c2)cc1", "Potency": "inactive"}, {"smiles": "COCCn1nnnc1C(c1cc2cc(OC)ccc2[nH]c1=O)N1CCC(Cc2ccccc2)CC1", "note": "(centres undefined)", "Potency": "inactive"}]}]}
